Data reported in patent US20130266605A1, “PEPTIDE INHIBITORS OF CD40L SIGNALING AND USES THEREFOR” (PHYLOGICA LIMITED, priority 2010, published 2013).
No constants are given. Whether binding was seen depends on the method and setting. Some entries that bind do so weakly or less than the wild type.

T1: CD40 ligand (UniProt P29965 108-261, limits assumed)
T1 sequence (looked up): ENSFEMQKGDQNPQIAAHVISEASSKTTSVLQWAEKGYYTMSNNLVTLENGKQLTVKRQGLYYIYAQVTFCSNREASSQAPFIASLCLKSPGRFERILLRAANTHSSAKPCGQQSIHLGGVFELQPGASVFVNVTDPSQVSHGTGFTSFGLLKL


Key:
[1] = biological target: T1, CD40 ligand; assay: Octet Red label-free (BLI)
[2] = biological target: T1, CD40 ligand; assay: primary biopanning with CD40L, phage display
[3] = biological target: T1, CD40 ligand; assay: Alphascreen proximity assay, peptide titrated; blocked interaction: CD40L with CD40
[4] = biological target: T1, CD40 ligand; assay: chemiluminescent proximity assay
[5] = biological target: T1, CD40 ligand; assay: phage display screen on CD40L
[6] = biological target: T1, CD40 ligand; assay: Alphascreen proximity assay, peptide titrated against 0.75nM CD40L; blocked interaction: CD40L with CD40
[7] = biological target: T1, CD40 ligand; assay: Alphascreen proximity assay, peptide dimer titrated against 0.75nM CD40L; blocked interaction: CD40L with CD40

Row | binding [1] | binding [2] | Binder | other results
1 |  | binds | LCEMIAIYVFLWKKVFL [CD40L M7_217] | 
2 | binds | binds | CD40L M8_720 (Base peptide) peptide: RLPETRKAQAALATKYGIYGFCYYHYWFNGRRILESPVDAMLESGEPDFPFMLCWANENWT | 
3 |  | binds | SIQYHWRYSRFKYYFQLIWVYYCHV [CD40L M1_82] | 
4 | binds | binds | CD40L M9_789 (Base peptide) peptide: LLAEQAGTLKSELEAMPLGEYEHAARYVSEVECNWKTFAGNYSECDHCHANHQDWITDIELEESELEVNDYHWILHYTHDEDVEDEMRIHDEHEAKFYYFWPNFT | 

The next lines start with the binder.

Row | Binder | binding [1] | binding [2] | other results
5 | LPFVPYRSHVLKYGWFFPVQWSIFAVLPFQYLHRCR (Base peptide) [CD40L M1_18] | binds | binds | 
6 | CHPFSIKNVFSIWNFFSVY (disulfide between the N-terminal cysteines of the two chains) [Cys_M1_6S homodimer] |  |  | binding [3]: binds; binding [4]: binds
7 | PPRYNLFFLFRFYCSFRRDYLYF (Base peptide) [CD40L M1_9] | binds | binds | 
8 | Cys_M1_6S-Cys_M1_9S heterodimer (disulfide through the N-terminal cysteine) peptide 1: CHPFSIKNVFSIWNFFSVY peptide 2: CPPRYNLFFLFRFYSSFRRDYLYF |  |  | binding [3]: binds; binding [4]: binds
9 | C02_40L_0804_1149 (peptide) peptide: LSACTPSGCTHPGSRGDDLQMATQWIFTLRCRTVGNSTRDVRISTQGSPHIELIDPFGNGALWVIL |  |  | binding [5]: binds
10 | C02_40L_0804_1152 (peptide) peptide: LSACTPSGCTHPGSRGDDLQMATQWIFTLRCRTVGNSTRDVRISTQGSPHIELIDPFGNGALWVIL |  |  | binding [5]: binds
11 | C02_40L_0804_1162 (peptide) peptide: LSACTPSGCTHPGSRGDDLQMATQWIFTLRCRTVGNSTRDVRISTQGSPHIELIDPFGNGALWVIL |  |  | binding [5]: binds
12 | C02_40L_0804_1164 (peptide) peptide: LSACTPSGCTHPGSRGDDLQMATQWIFTLRCRTVGNSTRDVRISTQGSPHIELIDPFGNGALWVIL |  |  | binding [5]: binds
13 | C02_40L_0804_1155 (peptide) peptide: LSACTPSGCTHPGSRGDDLQMATQWIFTLRCRTVGNSTRDVRISTQGSPHIELIDPFGNGALWVIL |  |  | binding [5]: binds
14 | PRWVRNRFYCLFVPSGVQRGGIHLWFSNWVR (Base peptide) [CD40L M1_50] |  | binds | 
15 | CD40L M9_763 (Base peptide) peptide: LDLFGDFNGLPEGADRTEFYQHEGHWQNRMILGDSLQVMASLAEREGLRGKVQCIYFDPPYGIKFN | binds | binds | 
16 | PFTWRPTIFWIIQLIVYMRHF (Base peptide; also called CD40L M1-206) [CD40L M7_206] |  | binds | 
17 | LLYVKVICFFCMLVQYNNFQTYK (Base peptide) [CD40L M2_159] |  | binds | 
18 | LWRLNEWNYSDAELLSLIEWCIDH (Base peptide) [CD40L M8_721] | binds | binds | 
19 | C02_40L_0804_1151 (peptide) peptide: LVQGSKEATTIDESAELEALADAVAEEILSSDGIYFLGAGSTIKRIKDKIGIEGTLLGVDVVRVENGKAKLLVKDA |  |  | binding [5]: binds
20 | C02_40L_0804_1173 (peptide) peptide: LVQGSKEATTIDESAELEALADAVAEEILSSDGIYFLGAGSTIKRIKDKIGIEGTLLGVDVVRVENGKAKLLVKDA |  |  | binding [5]: binds
21 | HSFVLFGVNVPFNIIDFQMRVKC (Base peptide) [CD40L M1_42] | binds | binds | 
22 | CHPFSIKNVFSIWNFFSVY [Cys_M1_6S] |  |  | binding [3]: binds; binding [6]: binds
23 | DAAGREFFQIAGLFSFRHHWWQA [CD40L M1_30] |  | binds | 
24 | HPFSIKNVFCIWNFFSVY (Base peptide) [CD40L M1_6] | binds | binds | 
25 | Cys_M1_6S-Cys_M1_189S heterodimer (disulfide through the N-terminal cysteine) peptide 1: CHPFSIKNVFSIWNFFSVY peptide 2: CLLLFFFSPPFSIFSFSLTTLS |  |  | binding [3]: binds; binding [4]: binds; binding [7]: binds
26 | LLLFFFSPPFSIFCFSLTTLS (Base peptide) [CD40L M7_189] |  | binds | 
